Publication PMC7250321
Results are given in words; binding and its absence hold for the method and conditions named. Binding seen in cells or lysates may run through a third protein. A result given as binding can be weak or reduced; the word gives no strength. Tags and fused reporters may be left off the sequences shown.

Target: T1, Flag-tagged ACOX1 protein (acyl-CoA oxidase 1) (human) (UniProt Q15067)
T1 sequence: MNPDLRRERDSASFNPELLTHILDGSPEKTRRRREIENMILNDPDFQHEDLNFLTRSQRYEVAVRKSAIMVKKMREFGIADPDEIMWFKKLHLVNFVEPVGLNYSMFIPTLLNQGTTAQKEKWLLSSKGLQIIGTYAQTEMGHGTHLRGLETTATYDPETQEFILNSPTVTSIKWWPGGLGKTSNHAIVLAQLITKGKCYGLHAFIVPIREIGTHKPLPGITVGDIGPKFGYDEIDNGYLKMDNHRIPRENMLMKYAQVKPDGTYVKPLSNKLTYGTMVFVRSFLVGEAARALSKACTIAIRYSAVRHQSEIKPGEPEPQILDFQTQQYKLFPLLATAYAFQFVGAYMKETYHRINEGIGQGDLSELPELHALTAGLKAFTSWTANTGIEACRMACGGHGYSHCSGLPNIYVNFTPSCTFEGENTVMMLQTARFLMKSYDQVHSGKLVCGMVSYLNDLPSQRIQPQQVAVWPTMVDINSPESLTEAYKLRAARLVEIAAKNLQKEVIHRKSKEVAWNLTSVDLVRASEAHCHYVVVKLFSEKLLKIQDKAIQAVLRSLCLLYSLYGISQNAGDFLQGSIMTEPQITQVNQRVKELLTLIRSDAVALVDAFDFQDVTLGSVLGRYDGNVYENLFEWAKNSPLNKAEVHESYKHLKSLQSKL
Test: co-IP; HEK293T cells co-transfected; IP lysis buffer (0.025 M Tris-HCl, 0.15 M NaCl, 1 mM EDTA, 1% NP-40, 5% glycerol, pH 7.4); IP with anti-Flag or anti-HA or control IgG overnight at 4°C, protein G agarose; Western blot

For “HA-tagged EV71 3D protein (enterovirus 71) (enzyme)”, the binding was “binds”.
